# Assay results as given in PubChem BioAssay AID1345085 (National Center for Advancing Translational Sciences (NCATS), 2018).
# The inconclusive results got no clear call from the source; some entries with a clear call stand among them for comparison. Where the call is inconclusive, the potency comes from a doubtful curve fit. Activity calls are given as the source filed them. Calls come from the whole dose curve; as a rule, active = well fitted cell-killing curve with a large enough effect; inconclusive = small, poorly fitted or top-dose-only effect, or effect the other way; inactive = no such curve, though single readings can be large or run the other way.
# Test system: JEG-3
# Assay: Confirmatory qHTS for gynecologic anti-cancer compounds from libraries of approved drugs and bioactive compounds; note: nearly all actives have a fitted effect of over 55% in size
# Conditions: gynecologic cancer cell panel viability, ATPlite luminescence, 48 h; series mostly up to 57.6 µM
# Outline: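 Viability is measured as ATP-dependent luciferase light using ATPlite, read 15 min after reagent addition at room temperature. Compounds, in DMSO, span 57.5 uM down to 0.977 nM over 11 threefold steps for 48 h.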
# Potency is the fitted concentration of half-maximal effect.
row,SMILES,Potency
1,O=c1c2ccccc2nc2n1CCc1c-2[nH]c2ccccc12,inactive
2,Cc1ccc(C(=O)N(CCCN)C(c2oc3cc(Cl)ccc3c(=O)c2Cc2ccccc2)C(C)C)cc1 (stereo not given),active: 0.109 µM
3,Nc1ncn([C@@H]2O[C@H](CO)[C@@H](O)[C@H]2O)c(=O)n1,inactive
4,Nc1ccccc1NC(=O)c1ccc(CNc2nccc(-c3cccnc3)n2)cc1,active: 2.17 µM
5,Cc1nc(N)ncc1-c1nc(N2CCOCC2)c2sc(C(C)(C)O)cc2n1,"inconclusive: 1.09 µM [cytotoxic, full curve]"
6,CNc1nccc(-c2cccnc2Oc2cc(C(=O)Nc3cccc(C(F)(F)F)c3)ccc2C)n1,"inconclusive: 15.3 µM [cytotoxic, partial curve]"
7,CCCCc1oc2ccccc2c1C(=O)c1cc(I)c(OCCN(CC)CC)c(I)c1,active: 70.8 µM
8,NCCOc1cc(C(=O)Nc2cc(OCCN)c3ccccc3n2)nc(C(=O)Nc2cc(OCCN)c3ccccc3n2)c1,"inconclusive: 17.2 µM [cytotoxic, partial curve]"
9,CN1CCN(CCOc2cc(OC3CCOCC3)c3c(Nc4c(Cl)ccc5c4OCO5)ncnc3c2)CC1,inactive
10,Cc1cncc2cccc(S(=O)(=O)N3CCCN(C(=O)CN)C[C@@H]3C)c12,inactive
11,Cc1ccc(C(=O)Nc2ccc(CN3CCN(C)CC3)c(C(F)(F)F)c2)cc1C#Cc1cnc2[nH]ncc2c1,"inconclusive: 21.7 µM [rising, partial curve]"
12,Cc1cnc(Nc2ccc(F)cc2Cl)nc1-c1c[nH]c(C(=O)NC(CO)c2cccc(Cl)c2)c1 (stereo not given),inactive
13,Cc1nc(NC(=O)N2CCCC2C(N)=O)sc1-c1csc(C(C)(C)C)n1 (stereo not given),"inconclusive: 8.63 µM [cytotoxic, full curve]"
14,C[C@@]1(C(=O)Nc2ccc(F)nc2)CCCN1c1nc(Nc2cc(C3CC3)[nH]n2)c2cccn2n1,"inconclusive: 5.44 µM [cytotoxic, partial curve, poor fit]"
15,COc1cc(-c2nn(C3CCC(N4CCN(C(C)=O)CC4)CC3)c3ncnc(N)c23)ccc1NC(=O)c1cc2ccccc2n1C (stereo not given),"inconclusive: 38.5 µM [cytotoxic, single point]"
16,Cc1cc(C2CCCCC2)n(O)c(=O)c1,active: 11.1 µM
17,C[C@]12CCC(=O)C=C1CC[C@@H]1[C@@H]2[C@@H](O)C[C@@]2(C)[C@H]1CC[C@]2(O)C(=O)CO,inactive
18,COc1cc2c(Oc3ccc(-c4cnc(Nc5ccc(F)cc5)n(C)c4=O)cc3F)ccnc2cc1OCCCN1CCOCC1,inactive
19,Cc1ccc(C(=O)Nc2cccc(C(F)(F)F)c2)cc1-c1ccc2nc(NCCN3CCOCC3)ncc2c1,"inconclusive: 15.3 µM [cytotoxic, partial curve, poor fit]"
20,Cc1cc(Nc2nc(N[C@@H](C)c3ccc(F)cc3)c(C#N)cc2F)n[nH]1,active: 19.3 µM
21,Cc1nc(NC(=O)N2CCCC2C(N)=O)sc1-c1ccnc(C(C)(C)C(F)(F)F)c1 (stereo not given),"inconclusive: 12.2 µM [cytotoxic, full curve]"
22,CCc1c2c(nc3ccc(O)cc13)-c1cc3c(c(=O)n1C2)COC(=O)[C@]3(O)CC,active: 0.122 µM
23,Cc1cc(C(=O)N2CCN(c3cccc(Cl)c3)CC2)n(-c2ccccc2)n1,active: 3.43 µM
24,Nc1cccc(-c2cc3c(Oc4cccc(O)c4)ncnc3[nH]2)c1,"inconclusive: 9.68 µM [cytotoxic, single point]"
25,O=c1[nH]c(=O)n([C@H]2C[C@H](O)[C@@H](CO)O2)cc1F,"inconclusive: 13.7 µM [cytotoxic, partial curve]"
26,Cc1[nH]c2ccccc2c1CCNCc1ccc(/C=C/C(=O)NO)cc1,active: 0.193 µM
27,CN(C)C1CCN(C(=O)c2ccc(NC(=O)Nc3nc(N4CCOCC4)nc(N4CCOCC4)n3)cc2)CC1,"inconclusive: 0.769 µM [cytotoxic, full curve]"
28,NS(=O)(=O)c1ccc(Nc2nc(OCC3CCCCC3)c3[nH]cnc3n2)cc1,"inconclusive: 6.85 µM [rising, partial curve]"
29,Cc1ccc(-n2[nH]c(C)c(N=Nc3cccc(-c4cccc(C(=O)O)c4)c3O)c2=O)cc1C,"inconclusive: 43.2 µM [cytotoxic, single point]"
30,COc1ccc(-c2ccc3c(N4CCOCC4C)nc(N4CCOCC4C)nc3n2)cc1CO (stereo not given),inactive

# An excerpt of the results above, as a working copy:
row,SMILES,Potency
6,CNc1nccc(-c2cccnc2Oc2cc(C(=O)Nc3cccc(C(F)(F)F)c3)ccc2C)n1,"inconclusive: 15.3 µM [cytotoxic, partial curve]"
7,CCCCc1oc2ccccc2c1C(=O)c1cc(I)c(OCCN(CC)CC)c(I)c1,active: 70.8 µM
